Assay results as given in patent publication US20010029035A1 (priority 2000, published 2001).

Test: solid-phase peptide synthesis
Conditions: whole synthesis

In the case of “H-D-Phe-Cys(Acm)-Phe-D-Trp-Lys-Thr-Cys(Acm)-Thr-OH”, the crude yield is reported as >95%.
